# According to the supplement of paper PMC5407854, “Inhibitor of ppGalNAc-T3-mediated O-glycosylation blocks cancer cell invasiveness and lowers FGF23 levels” (eLife, 2017):
# In all, about 1,700 compounds were measured (“T2 sensor activation Q score (MG/GFP ratio z-score vs DMSO controls)”: median about 0.3, highest 2% from about 1.9 on). Some of the results follow.
# Tested on: ppGalNAc-T2 sensor
# Assay: T2 sensor activation Q score (MG/GFP ratio z-score vs DMSO controls) (SD units); higher = more sensor activation (inhibition of ppGalNAc-T2 glycosylation)
# Settings: HEK293 sensor cells; 10 µM; 6 h
# Protocol: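 Cells were treated with compound at 10 uM for 6 h, then MG/GFP ratio was read by flow cytometry (10,000 cells per well, duplicate wells). Q = (R - R_neg)/SD_neg relative to DMSO vehicle controls; the signal rises when the glycosyltransferase is inhibited.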
row,SMILES,T2 sensor activation Q score
1,CC(C)(C)n1nc(C2CC2)cc1NC(=O)Nc1ccccc1,-0.05
2,Nc1ccc(-c2nc3nc(N)nc(N)c3nc2-c2ccc(N)cc2)cc1,4.95
3,CC(C)(NC(=O)c1cc(Cl)c2ccccc2c1O)C(=O)O,1.25
4,CC(C)C[C@H](NC(=O)[C@H](Cc1ccccc1)NC(=O)c1cnccn1)B(O)O,-1.25
5,CC(=O)NS(=O)(=O)c1ccc2sc(C)nc2c1,1.4
6,COc1ccc(N=Cc2c(O)ccc3c2oc2cc(Cl)c(O)c(Cl)c23)cc1,1.45
7,CS(=O)(=O)c1ccc(C(=O)Nc2ccc(Cl)c(-c3ccccn3)c2)c(Cl)c1,-0.45
8,CC1(C)N=C(N)N=C(N)N1c1cccc(CN)c1,-0.85
9,O=C(O)c1cc2ccccc2cc1Nc1ccccc1,1.35
10,CCCCCC(=O)N1CCCC1,-1.2
11,Brc1ccc(-c2csc(Nc3nc(-c4ccc(Br)cc4)cs3)n2)cc1,0.05
12,N=c1ccn2c(n1)O[C@H]1[C@H](O)[C@@H](CO)O[C@H]12,-0.8
13,O=c1[nH]cc(F)c(=O)[nH]1,-1.15
14,Oc1ccccc1Nc1ccccn1,-0.85
15,C=CCNC(=S)Nc1c(N)n(C)c(=O)n(C)c1=O,-0.8
16,O=C(Nc1ccc2ccccc2c1)c1cccc(F)c1,0.2
17,C[C@H](CCC(=O)O)[C@H]1CC[C@@]2(C)[C@@H]3C(=O)C[C@H]4C(C)(C)[C@@H](O)CC[C@]4(C)[C@H]3C(=O)C[C@]12C,0.05
18,COc1cccc(-c2nnc(N)o2)c1,-1.45
19,O=C(Nc1ccc(O)c(C(=O)O)c1)Oc1ccccc1,1.45
20,CCNC(=O)Oc1ccc[nH]c1=O,0.7
21,COc1ccc2c3c([nH]c2c1)[C@H]1C[C@H]2[C@H](C[C@@H](O)[C@H](OC)[C@H]2CO)CN1CC3,0.15
22,CCCCC(=O)OCC(=O)[C@]1(O)Cc2c(O)c3c(c(O)c2[C@@H](O[C@H]2C[C@H](NC(=O)C(F)(F)F)[C@H](O)[C@H](C)O2)C1)C(=O)c1c(OC)cccc1C3=O,-5.6
23,Cc1nc2ccccc2c(N)c1-c1cc(C)c2c(C)nc3ccccc3c2n1,1.55
24,O=C1OC(Cc2ccccc2)C(c2ccccc2)C1=O (centres undefined),0.95

# Taken from above:
# T2 sensor activation Q score with COc1ccc2c3c([nH]c2c1)[C@H]1C[C@H]2[C@H](C[C@@H](O)[C@H](OC)[C@H]2CO)CN1CC3 is entered as 0.15
# T2 sensor activation Q score with COc1ccc(N=Cc2c(O)ccc3c2oc2cc(Cl)c(O)c(Cl)c23)cc1 is entered as 1.45

# Remaining list, next part

row,SMILES,T2 sensor activation Q score
1,OCc1ncccc1O,1.6
2,CCCOc1nc2c(c(=O)n(C)c(=O)n2C)n1C,1.5
3,[O-]/[N+](=C\c1ccccc1)CC1(O)CCCCC1,-0.25
4,CCOC(CNCc1cc(C)c2[nH]c3ccccc3c2c1C)OCC,-0.5
5,O=S(=O)(c1ccc2c(c1)CCCN2)N1CCC[C@H]2CCCC[C@@H]21,-1.9
6,CCOC(=O)c1c(C)c(C(=O)OCC)n(C)c1C,1.7
7,Cc1ccc(C(N)=Nc2ccccc2)cc1,1.7
8,C#CC1(O)CCC2C3CCC4=Cc5oncc5CC4(C)C3CCC21C (centres undefined),0.4
9,Nc1nnc(-c2cccnc2)s1,0.6
10,CC1(C)OC2C(CO)OC(n3cnc4c(=S)nc[nH]c43)C2O1 (centres undefined),0.4
11,Cc1ccc(NC(=O)NNC(=O)CSC2CCc3ccccc32)c(C)c1 (centres undefined),-1.2
12,Cc1ccc(NC(=O)Nc2cccnc2)cc1NC(=O)Nc1cccnc1,1.05
13,C[C@]12CC[C@H](O)CC1=CC[C@@H]1[C@@H]2CC[C@]2(C)c3[nH]ncc3C[C@@H]12,0.2
14,O=C1c2ccccc2C(=O)c2c1cccc2-n1nnc2ccccc21,1
15,O=C1c2ccccc2C(=O)C1c1ccccn1,-0.05
16,CC(=C/c1ccccc1)/C=C1/NC(=S)NC1=O,-0.2
17,C#CCOCC1CN(c2ccccc2)C(=O)O1 (centres undefined),1.35
18,CO[C@H]1C[C@@H]2CC[C@@H](C)[C@@](O)(O2)C(=O)C(=O)N2CCCC[C@H]2C(=O)O[C@H]([C@H](C)C[C@@H]2CC[C@@H](O)[C@H](OC)C2)CC(=O)[C@H](C)/C=C(\C)[C@@H](O)[C@@H](OC)C(=O)[C@H](C)C[C@H](C)/C=C/C=C/C=C/1C,-1.05
19,NC(=O)C(=Cc1ccncc1)c1cccc2ccccc12,-0.45
20,OC(c1ccccc1)(c1ccccc1)c1nccn1-c1ccccc1,1
21,c1ccc2c(c1)-c1cccc3cncc-2c13,1.15
22,C=CCSc1n[nH]c(-c2cccs2)n1,0.3
23,COc1ccc(NC(=O)c2cc3ccc4c5ccccc5[nH]c4c3cc2O)cc1,-0.95
24,O=C(c1cccnc1)N1CCN(c2ccccc2Cl)CC1,0.15

# Gathered by group: the compounds so far with fluorine (3)
row,SMILES,T2 sensor activation Q score
13,O=c1[nH]cc(F)c(=O)[nH]1,-1.15
16,O=C(Nc1ccc2ccccc2c1)c1cccc(F)c1,0.2
22,CCCCC(=O)OCC(=O)[C@]1(O)Cc2c(O)c3c(c(O)c2[C@@H](O[C@H]2C[C@H](NC(=O)C(F)(F)F)[C@H](O)[C@H](C)O2)C1)C(=O)c1c(OC)cccc1C3=O,-5.6

# (continued)

row,SMILES,T2 sensor activation Q score
1,S=C1N(c2ccccc2)CN(C2CCCCC2)CN1c1ccccc1,0.65
2,CC(C)(C)N1CCC1CN (centres undefined),1.2
3,N#CC1=CC2CN(Cc3ccccc3)C1C1C(=O)N(c3ccccc3)C(=O)C21 (centres undefined),0.3
4,COc1cc(C(=O)OC(C)CN2CCOCC2)cc(OC)c1OC (centres undefined),-0.05
5,Cc1nc2ccccc2nc1N1CCCC1,1.5
6,O=S(=O)(O)c1ccc(N=Nc2ccccc2)cc1,-0.35
7,CN(C)S(=O)(=O)c1ccccc1N=C=S,-0.4
8,NCCN1CCNCC1,0.45
9,O=c1c(-c2ccc(O)cc2)coc2cc(O)cc(O)c12,0.15
10,Cc1cc(NC(=O)c2ccccc2)nc(C)n1,1.15
11,Nc1ccc(N=Nc2ccccc2Cl)c(N)n1,1.55
12,COc1ccc(C(=O)O)nc1C,-0.4
13,CC1=CN2C(c3cccc([N+](=O)[O-])c3)=NON(c3ccc(C)cn3)C2C=C1 (centres undefined),0.85
14,c1ccc(-c2cc3ccccc3[nH]2)cc1,0.85
15,Cc1ccc(S(=O)(=O)NC(=O)Nc2nccs2)cc1,-1.2
16,COc1cc2c(c3c1c(=O)c1cccc(F)c1n3C)C=CC(C)(C)O2,-1.8
17,Nc1ccc(NC(=S)Nc2ccccc2)cc1,1.4
18,FC(F)(F)c1nc2nc(Cl)c(Cl)nc2n1CCCN1CCOCC1,0.25
19,COc1ccccc1C1OC2=C(Nc3ccc([N+](=O)[O-])cc3N2)C1=O (centres undefined),-0.65
20,CCNc1nn2ccccc2c1C=C(C#N)C(=O)OCC,0.55
21,O=C(Cn1ccc(=O)[nH]c1=O)Nc1nccs1,-0.4
22,COc1ccc(/C(C#N)=C/c2cccnc2)cc1,1.55
23,CC(C)(C)CC(C)(C)N1CNC(=S)NC1,0.45
24,O=C(Nc1csnn1)c1csnn1,0.2

row,SMILES,T2 sensor activation Q score
1,CCc1c2c(nc3ccc(OC(=O)N4CCC(N5CCCCC5)CC4)cc13)-c1cc3c(c(=O)n1C2)COC(=O)[C@]3(O)CC,0.5
2,Cn1[nH]cc(/C=N/C(N)=O)c1=O,-0.15
3,Nc1ccc2c(c1)Cc1cc(Cl)c(Cl)cc1-2,0.5
4,O=C(O)CCNC1CCCCC1,-0.6
5,NC(=O)c1ccccc1NC(=O)COc1ccc(Cl)cc1,-0.45
6,S=c1c2[nH]cnc2ncn1CCSc1ncnc2nc[nH]c12,1.7
7,O=C(NC(=S)Nc1cc(Cl)ccc1O)c1cccc(Br)c1,-0.15
8,COC1C(=O)CCC2(CO2)C1(O)C1(C)OC1CC=C(C)C (centres undefined),0
9,Cc1cn(C2CC(O)C(CO)O2)c(=O)n(Cc2ccccc2)c1=O (centres undefined),0.85
10,CSc1nc(=S)c2[nH]c(=S)[nH]c2[nH]1,-0.9
11,Cc1cnc2cc(Cl)ccc2c1SCC(=O)O,1.05
12,CCC1=C[C@@H]2CN(C1)Cc1c([nH]c3ccccc13)[C@@](C(=O)OC)(c1cc3c(cc1OC)N(C)[C@H]1[C@@](O)(C(=O)OC)[C@H](OC(C)=O)[C@]4(CC)C=CCN5CC[C@]31[C@@H]54)C2,1.1
13,CC(C)(C)n1nc(C2CC2)cc1NC(=O)Nc1ccc(Cl)cc1,-0.9
14,CC(C)(C(N)=O)c1ccccc1,1.25
15,CSc1nsc(NN)n1,-0.1
16,NC(=NOC(=O)c1ccccc1)C(Cc1ccccc1)C(=O)NOC(=O)c1ccccc1 (centres undefined),-0.25
17,NCC(=O)c1cccc2ccc[n+]([O-])c12,0.05
18,CC(C)CC(NC(=O)OCc1ccccc1)C(=O)NC(Cc1c[nH]c2ccccc12)C(=O)O (centres undefined),0
19,N.N.O=C([O-])C1(C(=O)[O-])CCC1.[Pt+2],0.2
20,Cc1cc2c(cc1C)N(C(=O)CCl)CC(=O)N2,0.5
21,CC1(c2ccccc2)O[C@@H]2C[C@H]3[C@@H]4CCC5=CC(=O)C=C[C@]5(C)[C@@]4(F)[C@@H](O)C[C@]3(C)[C@]2(C(=O)CO)O1 (some centres undefined),1.3
22,O=c1n(CC2CO2)c(=O)n(CC2CO2)c(=O)n1CC1CO1 (centres undefined),-0.15
23,O=[N+]([O-])C1C(c2ccccc2)C12c1ccccc1-c1ccccc12 (centres undefined),-0.65
24,Cc1cc2c(cc1C)NC1=C(N2)OC(c2cccc(O)c2)C1=O (centres undefined),-0.85

row,SMILES,T2 sensor activation Q score
1,COc1ccccc1/C=C1\Cc2ccccc2C1=O,0.7
2,O=C(O)C1CCC(=O)N1C(=O)OCc1ccccc1 (centres undefined),-0.1
3,O=C(Nc1ccc(Cl)c(Cl)c1)Nc1ccccc1O,-0.7
4,O=[N+]([O-])c1ccc(NN=C(c2ccccc2)c2ccccc2)nc1,1.5
5,CC(NC(=O)c1ccc(Cl)c(Cl)c1)c1ccc(-c2ccccc2)cc1 (centres undefined),-0.2
6,N#C/C(=C\c1ccc(C#N)cc1)C(=O)c1ccccc1,0.6
7,O=c1[nH]c(=O)n([C@H]2C[C@H](O)[C@@H](CO)O2)cc1F,0.45
8,CC1=CC(=O)C(C(C)=Nc2ccccc2Cl)C(=O)O1 (centres undefined),0.1
9,CNNCc1ccc(C(=O)NC(C)C)cc1,-0.95
10,Cc1ccc(C)c(N2CCN(c3ccncc3N)CC2)c1,-0.3
11,OCC1(CO)COC2(CCCC2)N1,-0.05
12,O=C1CCC(NC(=O)c2ccccc2)C(=O)N1 (centres undefined),1.75
13,Nc1cc(=O)[nH]c2ncnn12,0.75
14,N#C/C(=C\c1c[nH]c2ccccc12)C(N)=O,0.8
15,NS(=O)(=O)c1ccc(Cl)cc1[N+](=O)[O-],0.4
16,Nc1ncnc(N2CCOCC2)n1,-0.6
17,CCn1c2ccccc2c2cc(NC(=O)Nc3ccc([N+](=O)[O-])cc3C)ccc21,0.5
18,CN(C)c1nc(=Nc2cccc(Cl)c2)ss1,-1.05
19,O=C1COc2c1ccc(O)c2O,0.6
20,CSc1nc(N)c(C(=O)Nc2ccc([N+](=O)[O-])cc2)s1,0.05
21,O=C(Nc1cccc2ccccc12)c1ccccc1,-0.3
22,CN(C)c1ncnc2c1ncn2-c1ccccc1,0.3
23,Nc1ncncc1-c1ccc2ccccc2c1,0.3
